{"sequences": {"note": "By UniProt entry, the sequences of proteins in these tests, tags left out.", "UniProt P33302, whole entry V1372A": "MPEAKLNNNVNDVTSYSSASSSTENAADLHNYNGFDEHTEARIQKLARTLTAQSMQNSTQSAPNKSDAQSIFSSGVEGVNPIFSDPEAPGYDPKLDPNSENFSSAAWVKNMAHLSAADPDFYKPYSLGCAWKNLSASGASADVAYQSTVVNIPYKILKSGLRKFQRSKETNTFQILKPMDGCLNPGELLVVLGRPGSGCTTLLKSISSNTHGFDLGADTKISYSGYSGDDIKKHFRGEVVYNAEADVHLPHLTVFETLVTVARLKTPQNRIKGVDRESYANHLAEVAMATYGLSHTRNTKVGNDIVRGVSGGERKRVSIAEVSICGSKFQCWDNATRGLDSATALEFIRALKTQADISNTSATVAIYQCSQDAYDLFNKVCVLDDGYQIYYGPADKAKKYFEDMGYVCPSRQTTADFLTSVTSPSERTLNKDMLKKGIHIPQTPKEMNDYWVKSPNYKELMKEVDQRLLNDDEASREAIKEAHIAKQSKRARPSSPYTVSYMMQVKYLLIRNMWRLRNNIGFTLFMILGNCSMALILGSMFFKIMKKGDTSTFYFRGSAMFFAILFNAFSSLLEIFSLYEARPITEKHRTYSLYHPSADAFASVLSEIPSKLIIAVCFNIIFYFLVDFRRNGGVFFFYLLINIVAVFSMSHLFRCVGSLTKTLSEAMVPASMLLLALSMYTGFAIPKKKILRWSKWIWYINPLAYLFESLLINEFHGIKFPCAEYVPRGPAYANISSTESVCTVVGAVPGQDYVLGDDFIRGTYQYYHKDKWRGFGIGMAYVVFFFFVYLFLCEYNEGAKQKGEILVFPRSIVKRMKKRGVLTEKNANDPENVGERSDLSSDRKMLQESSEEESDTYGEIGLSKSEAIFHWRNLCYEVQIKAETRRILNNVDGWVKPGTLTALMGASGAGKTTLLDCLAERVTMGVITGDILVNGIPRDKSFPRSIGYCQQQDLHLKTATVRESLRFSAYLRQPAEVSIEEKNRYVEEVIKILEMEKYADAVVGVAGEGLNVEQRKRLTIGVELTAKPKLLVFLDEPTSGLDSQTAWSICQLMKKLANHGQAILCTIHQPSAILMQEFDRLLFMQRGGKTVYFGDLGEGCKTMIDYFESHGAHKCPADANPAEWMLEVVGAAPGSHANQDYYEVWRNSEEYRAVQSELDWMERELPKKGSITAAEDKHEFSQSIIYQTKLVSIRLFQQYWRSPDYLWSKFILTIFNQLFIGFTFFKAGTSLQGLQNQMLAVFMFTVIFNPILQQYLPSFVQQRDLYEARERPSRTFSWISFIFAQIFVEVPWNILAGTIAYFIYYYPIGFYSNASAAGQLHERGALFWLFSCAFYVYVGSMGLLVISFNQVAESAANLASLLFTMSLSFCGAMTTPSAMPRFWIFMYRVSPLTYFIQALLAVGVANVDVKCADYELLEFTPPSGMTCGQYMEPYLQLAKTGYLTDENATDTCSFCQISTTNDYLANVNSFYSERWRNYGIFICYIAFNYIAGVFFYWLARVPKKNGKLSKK", "UniProt P33302, whole entry I685A": "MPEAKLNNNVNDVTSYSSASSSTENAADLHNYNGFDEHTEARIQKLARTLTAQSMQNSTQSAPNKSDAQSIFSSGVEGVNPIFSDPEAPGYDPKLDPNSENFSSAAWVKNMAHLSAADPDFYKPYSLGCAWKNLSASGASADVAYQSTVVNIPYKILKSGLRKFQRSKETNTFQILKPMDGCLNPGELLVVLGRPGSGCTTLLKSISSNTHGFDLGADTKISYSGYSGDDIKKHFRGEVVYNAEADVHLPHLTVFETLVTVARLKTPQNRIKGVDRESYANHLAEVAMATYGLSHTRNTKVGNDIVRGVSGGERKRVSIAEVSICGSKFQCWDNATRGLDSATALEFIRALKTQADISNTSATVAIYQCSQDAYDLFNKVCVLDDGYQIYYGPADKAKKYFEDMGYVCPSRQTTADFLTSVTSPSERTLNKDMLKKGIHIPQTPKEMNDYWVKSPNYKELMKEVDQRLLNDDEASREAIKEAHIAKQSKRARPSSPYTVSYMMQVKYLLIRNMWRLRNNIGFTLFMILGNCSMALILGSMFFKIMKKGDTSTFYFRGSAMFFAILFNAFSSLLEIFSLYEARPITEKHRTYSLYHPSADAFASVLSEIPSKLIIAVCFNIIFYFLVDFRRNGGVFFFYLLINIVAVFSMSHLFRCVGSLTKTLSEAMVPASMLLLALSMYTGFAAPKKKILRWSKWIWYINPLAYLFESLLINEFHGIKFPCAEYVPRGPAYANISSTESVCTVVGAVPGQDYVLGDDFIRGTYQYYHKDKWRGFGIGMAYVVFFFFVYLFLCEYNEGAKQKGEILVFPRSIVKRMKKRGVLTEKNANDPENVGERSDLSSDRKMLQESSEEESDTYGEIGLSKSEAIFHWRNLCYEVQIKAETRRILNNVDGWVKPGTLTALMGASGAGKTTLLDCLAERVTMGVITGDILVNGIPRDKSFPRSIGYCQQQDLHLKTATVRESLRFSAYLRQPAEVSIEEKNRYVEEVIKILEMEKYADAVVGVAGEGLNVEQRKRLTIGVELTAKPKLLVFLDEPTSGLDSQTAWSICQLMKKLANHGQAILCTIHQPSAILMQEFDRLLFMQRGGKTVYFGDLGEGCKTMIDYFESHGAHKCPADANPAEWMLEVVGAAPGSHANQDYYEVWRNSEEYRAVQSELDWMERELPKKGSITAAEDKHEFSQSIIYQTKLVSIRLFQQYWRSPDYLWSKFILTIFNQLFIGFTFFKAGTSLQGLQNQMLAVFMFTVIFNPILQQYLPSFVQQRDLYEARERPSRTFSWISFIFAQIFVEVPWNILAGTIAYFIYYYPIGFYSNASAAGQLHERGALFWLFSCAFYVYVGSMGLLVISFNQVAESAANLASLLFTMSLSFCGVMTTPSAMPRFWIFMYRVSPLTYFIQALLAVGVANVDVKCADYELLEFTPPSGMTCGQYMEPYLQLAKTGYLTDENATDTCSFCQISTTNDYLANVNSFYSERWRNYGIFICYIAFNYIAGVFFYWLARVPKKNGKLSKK"}, "source": "paper PMC9723933", "about": "(The Journal of Biological Chemistry, 2022)", "key": {"Pdr5 WT": {"target": "Pdr5 WT (Saccharomyces cerevisiae, UniProt P33302)", "assay": "Inhibition of Pdr5 ATPase activity in purified PM vesicles", "assay_type": "biochemical, yeast"}, "Pdr5 V1372A": {"target": "Pdr5 V1372A (Saccharomyces cerevisiae, UniProt P33302, V1372A)", "assay": "biochemical", "design": "species or system yeast"}, "Pdr5 I685A": {"target": "Pdr5 I685A (Saccharomyces cerevisiae, UniProt P33302, I685A)", "assay": "biochemical", "design": "species or system yeast"}}}
{"smiles": "Clc1ccccc1C(c1ccccc1)(c1ccccc1)n1ccnc1", "note": "[clotrimazole]", "values": [{"measurement": "IC50", "setting": "Pdr5 WT", "value": 1170, "unit": "nM"}, {"measurement": "IC50", "setting": "Pdr5 V1372A", "value": 1960, "unit": "nM"}, {"measurement": "IC50", "setting": "Pdr5 I685A", "value": 1780, "unit": "nM"}]}
